Reference: patent US10295530B2, “Functional assay for cancer recurrence and malignant potential” (THE BRIGHAM AND WOMEN'S HOSPITAL, INC., priority 2012, dated 2019)

Tested on: instigating LBC tumor / host platelets and bone marrow
Assay: Aspirin treatment in LBC-mediated systemic instigation: instigating LBC tumor, platelet counts, bone marrow VEGFR2+ cells
Format: in vivo, mice
Protocol: FIG. 35A. Experimental scheme to test effects of aspirin on LBC-mediated systemic instigation. All mice were injected with responders and LBC instigating tumors and treated with either 100 mg/kg aspirin or vehicle control; n=10 (5 mice per cohort for 2 independent experiments).
FIG. 35C. Numbers of VEGFR2+ cells in the bone marrow of experimental mice relative to those of cancer-free mice.
450 mg Aspirin (Sigma, A2093-100G) was dissolved in 11 ml DMSO to make a 41 mg/ml concentrated stock solution. 30 min before injection, 1.6 ml of stock solution was diluted in 11.6 ml of PBS to make a 5 mg/ml injection solution.
Vehicle control was made with 1.6 ml DMSO diluted in 11.6 ml PBS. Mice were injected i.p. with aspirin at 100 mg/kg, once per week. A similar volume:weight ratio of vehicle was administered to control animals.
In order to explore therapeutic potential and identify whether platelets were necessary for delivering the pro-tumorigenic instigating stimulus in the LBC macroenvironment, we treated mice with aspirin, which inhibits platelet activity (28). Mice were injected with LBC instigators that were permitted to grow for 4 weeks prior to initiation of weekly treatments of either aspirin or vehicle control; responders were then injected into these mice two days following the first aspirin treatment (FIG. 35A). […]

CC(=O)Oc1ccccc1C(=O)O [aspirin, Aspirin]
circulating platelet counts (aspirin 100 mg/kg i.p. once per week vs vehicle): did not significantly affect
numbers of VEGFR2-positive cells in the marrow relative to cancer-free mice (aspirin-treated LBC-bearing mice, not significantly different from vehicle-treated): ~2 fold
